The nature of the data set: peptide synthesis.
Where [1] appears, read: whole synthesis, HPLC-MS, Agilent 1200 HPLC/6100 SQ, C18 columns, DAD (214 nm and 254 nm), ELSD.
Where [2] appears, read: conjugation step, HPLC-MS, Agilent 1200 HPLC/6100 SQ, C18 columns, DAD (214 nm and 254 nm), ELSD.

On to “(2S,4R)-4-({2-[(1R,3R)-1-(Acetyloxy)-4-methyl-3-[(2S,3S)-3-methyl-2-{[(2R)-1-methylpiperidin-2-yl]formamido}-N-(pent-4-yn-1-yloxy)pentanamido]pentyl]-1,3-thiazol-4-yl}formamido)-5-(4-hydroxyphenyl)-2-methylpentanoic acid”, for which the step yield (coupling step) amounted to 39%. For the same substance, where the note is “coupling step, Method A”, the “final HPLC purity” value was over 99%.

Turning to “(2S,4R)-5-(4-Hydroxyphenyl)-4-(2-((5R,7R)-7-isopropyl-8-((2S,3S)-3-methyl-2-((R)-1-methylpiperidine-2-carboxamido)pentanoyl)-3-oxo-4,9-dioxa-2,8-diazapentadecan-5-yl)thiazole-4-carboxamido)-2-methylpentanoic acid”, the step yield (coupling step) is reported as 36%.

For the setting “coupling step”, “(2S,4R)-5-(4-Hydroxyphenyl)-4-(2-((7R,9R)-9-isopropyl-10-((2S,3S)-3-methyl-2-((R)-1-methylpiperidine-2-carboxamido)pentanoyl)-5-oxo-6,11-dioxa-4,10-diazaheptadecan-7-yl)thiazole-4-carboxamido)-2-methylpentanoic acid” registered a step yield of 40%.

For the setting “coupling step”, “(2S,4R)-5-(4-Hydroxyphenyl)-4-(2-((8R,10R)-10-isopropyl-11-((2S,3S)-3-methyl-2-((R)-1-methylpiperidine-2-carboxamido)pentanoyl)-6-oxo-7,12-dioxa-5,11-diazaoctadecan-8-yl)thiazole-4-carboxamido)-2-methylpentanoic acid” came in with a step yield of 50%.

Take “(2S,4R)-5-(4-Hydroxyphenyl)-4-(2-((9R,11R)-9-isopropyl-8-((2S,3S)-3-methyl-2-((R)-1-methylpiperidine-2-carboxamido)pentanoyl)-13-oxo-7,12-dioxa-8,14-diazaicosan-11-yl)thiazole-4-carboxamido)-2-methylpentanoic acid”: the step yield (coupling step) was 40%.

As to “(2S,4R)-5-(4-hydroxyphenyl)-4-(2-((6R,8R)-8-isopropyl-9-((2S,3S)-3-methyl-2-((R)-1-methylpiperidine-2-carboxamido)pentanoyl)-4-oxo-5,10-dioxa-3,9-diazahexadecan-6-yl)thiazole-4-carboxamido)-2-methylpentanoic acid”, for the setting “coupling step”, the step yield is 15%.

Under “coupling step”, “(4S)-4-({2-[(1R,3R)-1-(Acetyloxy)-3-[(2S,3S)—N-(hex-5-yn-1-yl)-3-methyl-2-{[(2R)-1-methylpiperidin-2-yl]formamido}pentanamido]-4-methylpentyl]-1,3-thiazol-4-yl}formamido)-2,2-dimethyl-5-phenylpentanoic acid” returned a step yield of 10% yield. The “final HPLC purity” value reads like this: (coupling step, Method A) over 99%; under setting [1], 100%.

Where the note is “coupling step”, “(4S)-4-({2-[(1R,3R)-1-(Acetyloxy)-3-[(2S,3S)—N-(hex-5-yn-1-yl)-3-methyl-2-{[(2R)-1-methylpiperidin-2-yl]formamido}pentanamido]-4-methylpentyl]-1,3-thiazol-4-yl}formamido)-5-(4-aminophenyl)-2,2-dimethylpentanoic acid” showed a step yield of 14% yield. Also, the “final HPLC purity” value is, setting by setting: (coupling step, Method A) over 99%; under setting [1], 100%.

“(4S)-4-({2-[(1R,3R)-1-(Acetyloxy)-3-[(2S,3S)—N-(hex-5-yn-1-yl)-3-methyl-2-{[(2R)-1-methylpiperidin-2-yl]formamido}pentanamido]-4-methylpentyl]-1,3-thiazol-4-yl}formamido)-5-(4-fluorophenyl)-2,2-dimethylpentanoic acid” showed a step yield (coupling step) of 16% yield. Moreover, the “final HPLC purity” value is reported as over 99% (coupling step, Method B) and 100% under setting [1].

Under “coupling step”, “(4S)-4-({2-[(1R,3R)-1-(Acetyloxy)-3-[(2S,3S)—N-hexyl-3-methyl-2-{[(2R)-1-methylpiperidin-2-yl]formamido}pentanamido]-4-methylpentyl]-1,3-thiazol-4-yl}formamido)-5-(4-fluorophenyl)-2,2-dimethylpentanoic acid” showed a step yield of 26% yield.

Consider “(4S)-4-({2-[(1R,3R)-1-(Acetyloxy)-3-[(2S,3S)—N-hexyl-3-methyl-2-{[(2R)-1-methylpiperidin-2-yl]formamido}pentanamido]-4-methylpentyl]-1,3-thiazol-4-yl}formamido)-5-{4-[(2S)-2-[(2S)-2-[1-(4-{2-azatricyclo[10.4.0.04,9]hexadeca-1(12),4(9),5,7,13,15-hexaen-10-yn-2-yl}-4-oxobutanamido)-3,6,9,12-tetraoxapentadecan-15-amido]-3-methylbutanamido]propanamido]-3-fluorophenyl}-2,2-dimethylpentanoic acid”, for which the “final HPLC purity” value under setting [2] was 99%. The conjugation yield was found to be 65% (conjugation step, run 1) and 35% (conjugation step, run 2).

For “(4S)-4-({2-[(1R,3R)-1-(Acetyloxy)-3-[(2S,3S)—N-hexyl-3-methyl-2-{[(2R)-1-methylpiperidin-2-yl]formamido}pentanamido]-4-methylpentyl]-1,3-thiazol-4-yl}formamido)-5-{4-[(2S)-2-[(2S)-2-[1-({[(1R,8S,9R)-bicyclo[6.1.0]non-4-yn-9-ylmethoxy]carbonyl}amino)-3,6,9,12-tetraoxapentadecan-15-amido]-3-methylbutanamido]propanamido]-3-fluorophenyl}-2,2-dimethylpentanoic acid”, the conjugation yield (conjugation step) amounted to 48%. The “final HPLC purity” value under setting [2] is on record as over 99%.

As for “(4S)-4-({2-[(1R,3R)-1-(Acetyloxy)-4-methyl-3-[(2S,3S)-3-methyl-2-{[(2R)-1-methylpiperidin-2-yl]formamido}-N-(pent-4-yn-1-yloxy)pentanamido]pentyl]-1,3-thiazol-4-yl}formamido)-2,2-dimethyl-5-phenylpentanoic acid”, the step yield (coupling step) turned out to be 35%. In addition, the “final HPLC purity” value by setting is: (coupling step, Method B) over 99%; under setting [1], 100%.

Substance “(4S)-4-({2-[(1R,3R)-1-(Acetyloxy)-4-methyl-3-[(2S,3S)-3-methyl-2-{[(2R)-1-methylpiperidin-2-yl]formamido}-N-(pent-4-yn-1-yloxy)pentanamido]pentyl]-1,3-thiazol-4-yl}formamido)-5-(4-aminophenyl)-2,2-dimethylpentanoic acid” yielded a step yield (coupling step) of 27%. Also, the “final HPLC purity” value was found to be 95% (coupling step, Method B) and 98% under setting [1].

Under “coupling step”, “(4S)-4-({2-[(1R,3R)-1-(Acetyloxy)-4-methyl-3-[(2S,3S)-3-methyl-2-{[(2R)-1-methylpiperidin-2-yl]formamido}-N-(pent-4-yn-1-yloxy)pentanamido]pentyl]-1,3-thiazol-4-yl}formamido)-5-(4-fluorophenyl)-2,2-dimethylpentanoic acid” yielded a step yield of 40%. For the same substance, the “final HPLC purity” value is, setting by setting: (coupling step, Method B) over 99%; under setting [1], 100%.

“(4S)-4-({2-[(1R,3R)-1-(Acetyloxy)-4-methyl-3-[(2S,3S)-3-methyl-2-{[(2R)-1-methylpiperidin-2-yl]formamido}-N-(pent-4-yn-1-yloxy)pentanamido]pentyl]-1,3-thiazol-4-yl}formamido)-5-(4-{2-[2-(2-{2-[2-(cyclooct-2-yn-1-yloxy)acetamido]acetamido}acetamido)acetamido]acetamido}phenyl)-2,2-dimethylpentanoic acid” registered a conjugation yield (conjugation step) of 87%. Besides, under setting [2], the “final HPLC purity” value came to 95%.

Take “(4S)-4-({2-[(1R,3R)-1-(Acetyloxy)-4-methyl-3-[(2S,3S)-3-methyl-2-{[(2R)-1-methylpiperidin-2-yl]formamido}-N-(pent-4-yn-1-yloxy)pentanamido]pentyl]-1,3-thiazol-4-yl}formamido)-5-(4-{2-[2-(2-{2-[(2S)-2-[2-(cyclooct-2-yn-1-yloxy)acetamido]-3-hydroxypropanamido]acetamido}acetamido)acetamido]acetamido}phenyl)-2,2-dimethylpentanoic acid”: the conjugation yield (conjugation step) worked out at 44%. Besides, the “final HPLC purity” value under setting [2] is recorded as over 95%.

“(4S)-4-({2-[(1R,3R)-1-(Acetyloxy)-4-methyl-3-[(2S,3S)-3-methyl-2-{[(2R)-1-methylpiperidin-2-yl]formamido}-N-(pent-4-yn-1-yloxy)pentanamido]pentyl]-1,3-thiazol-4-yl}formamido)-5-(4-{2-[2-(cyclooct-2-yn-1-yloxy)acetamido]acetamido}phenyl)-2,2-dimethylpentanoic acid”: for the setting “conjugation step”, the conjugation yield amounted to 48%. Besides, the “final HPLC purity” value under setting [2] is listed as over 95%.

Regarding “(4S)-4-({2-[(1R,3R)-1-(Acetyloxy)-4-methyl-3-[(2S,3S)-3-methyl-2-{[(2R)-1-methylpiperidin-2-yl]formamido}-N-(pent-4-yn-1-yloxy)pentanamido]pentyl]-1,3-thiazol-4-yl}formamido)-5-(4-{2-[(2S)-2-{2-[2-(4-{2-azatricyclo[10.4.0.04,9]hexadeca-1(12),4(9),5,7,13,15-hexaen-10-yn-2-yl}-4-oxobutanamido)acetamido]acetamido}-3-phenylpropanamido]acetamido}phenyl)-2,2-dimethylpentanoic acid”, the conjugation yield (conjugation step) is listed as 80%. The “final HPLC purity” value under setting [2] is 95%.

For the setting “late stage modification step”, “(4S)-4-({2-[(1R,3R)-1-(Acetyloxy)-4-methyl-3-[(2S,3S)-3-methyl-2-{[(2R)-1-methylpiperidin-2-yl]formamido}-N-(pent-4-yn-1-yloxy)pentanamido]pentyl]-1,3-thiazol-4-yl}formamido)-5-[4-(2-aminoacetamido)phenyl]-2,2-dimethylpentanoic acid” displayed a step yield of 50%.

For “(4S)-4-({2-[(1R,3R)-1-(Acetyloxy)-4-methyl-3-[(2S,3S)-3-methyl-2-{[(2R)-1-methylpiperidin-2-yl]formamido}-N-(pent-4-yn-1-yloxy)pentanamido]pentyl]-1,3-thiazol-4-yl}formamido)-5-[4-(2-{2-[2-(4-{2-azatricyclo[10.4.0.04,9]hexadeca-1(12),4(9),5,7,13,15-hexaen-10-yn-2-yl}-4-oxobutanamido)acetamido]acetamido}acetamido)phenyl]-2,2-dimethylpentanoic acid”, the conjugation yield (conjugation step) is recorded as 33%. The “final HPLC purity” value under setting [2] stood at 99%.

The values above are taken from US12144864B2 (Regeneron Pharmaceuticals, Inc., priority 2018, dated 2024).
